Laboratory results as given in article PMC8500273.
These are yes or no findings as the source states them, for the method shown. In cells and extracts the contact can be indirect. Binding can be weak; no strength is given. Tags and fused reporters may be left off the sequences shown.

Molecular target: mCherry-hRab7a-His (human)
Assay: co-IP; HEK293 cells overexpressing the tagged proteins; Co-IP lysis buffer (50 mM Tris-HCl, 5 mM EDTA, 150 mM NaCl, 0.5% Nonidet-P40, 10% glycerol, pH 7.4); M2-Flag, anti-His or anti-Myc beads overnight at 4°C; western blot; for Coro1a with Rab7a also with Trim4 siRNA and 100 nM MLN4924 for 12 h

binding: binds weakly
B1: mCherry-hCoro1a-K233R-Flag (protein, UniProt P31146 1-461)
chain: MSRQVVRSSKFRHVFGQPAKADQCYEDVRVSQTTWDSGFCAVNPKFVALICEASGGGAFLVLPLGKTGRVDKNAPTVCGHTAPVLDIAWCPHNDNVIASGSEDCTVMVWEIPDGGLMLPLREPVVTLEGHTKRVGIVAWHTTAQNVLLSAGCDNVIMVWDVGTGAAMLTLGPEVHPDTIYSVDWSRDGGLICTSCRDKRVRIIEPRKGTVVAEKDRPHEGTRPVRAVFVSEGRILTTGFSRMSERQVALWDTKHLEEPLSLQELDTSSGVLLPFFDPDTNIVYLCGKGDSSIRYFEITSEAPFLHYLSMFSSKESQRGMGYMPKRGLEVNKCEIARFYKLHERRCEPIAMTVPRKSDLFQEDLYPPTAGPDPALTAEEWLGGRDAGPLLISLKDGYVPPKSRELRVNRGLDTGRRRAAPEASGTPSSDAVSRLEEEMRKLQATVQELQKRLDRLEETVQAK
